This is one part of the list. Most values lie at the level of the controls, where differences are scatter.
The targets below were run with CN[C@@H]1C[C@H]2O[C@@](C)([C@@H]1OC)n1c3ccccc3c3c4c(c5c6ccccc6n2c5c31)C(=O)NC4 [staurosporine] (assay: log2 fold change of pooled soluble protein (PISA), ligand vs vehicle (log2 ratio); higher = more thermally stabilized). Settings: ligand concentration: 20 uM; assay format: PISA pool 52.9/55.5/58.6 C.

By UniProt entry, the sequences of proteins in these tests, tags left out. Where a name states a change or a piece, a line headed by the entry shows the natural chain unless it says otherwise.
UniProt Q9JKD3: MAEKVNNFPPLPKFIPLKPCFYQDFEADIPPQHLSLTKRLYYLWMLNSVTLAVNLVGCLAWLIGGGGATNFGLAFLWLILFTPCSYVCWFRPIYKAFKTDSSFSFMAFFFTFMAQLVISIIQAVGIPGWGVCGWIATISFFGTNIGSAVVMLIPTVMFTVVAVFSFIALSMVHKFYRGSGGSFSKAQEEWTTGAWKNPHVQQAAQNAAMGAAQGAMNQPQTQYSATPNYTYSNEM
UniProt Q9QXA5: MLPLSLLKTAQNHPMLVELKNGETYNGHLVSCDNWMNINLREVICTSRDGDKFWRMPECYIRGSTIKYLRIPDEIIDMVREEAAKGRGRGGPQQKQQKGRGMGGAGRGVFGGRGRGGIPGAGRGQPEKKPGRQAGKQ
UniProt Q9DCQ2: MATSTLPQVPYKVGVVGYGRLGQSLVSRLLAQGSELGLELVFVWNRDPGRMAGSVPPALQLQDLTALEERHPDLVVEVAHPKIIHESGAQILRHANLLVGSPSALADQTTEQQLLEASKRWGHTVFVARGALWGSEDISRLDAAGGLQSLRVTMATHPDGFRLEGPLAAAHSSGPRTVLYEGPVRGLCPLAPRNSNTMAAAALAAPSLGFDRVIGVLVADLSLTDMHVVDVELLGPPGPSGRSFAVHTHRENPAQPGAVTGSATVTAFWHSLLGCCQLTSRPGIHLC
UniProt Q9DCL8: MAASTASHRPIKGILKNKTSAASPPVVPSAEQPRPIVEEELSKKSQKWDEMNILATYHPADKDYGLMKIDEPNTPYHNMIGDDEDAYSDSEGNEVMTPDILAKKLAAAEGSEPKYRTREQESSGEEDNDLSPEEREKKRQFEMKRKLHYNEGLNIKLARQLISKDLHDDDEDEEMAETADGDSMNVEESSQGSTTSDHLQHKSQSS
UniProt Q9DCV4: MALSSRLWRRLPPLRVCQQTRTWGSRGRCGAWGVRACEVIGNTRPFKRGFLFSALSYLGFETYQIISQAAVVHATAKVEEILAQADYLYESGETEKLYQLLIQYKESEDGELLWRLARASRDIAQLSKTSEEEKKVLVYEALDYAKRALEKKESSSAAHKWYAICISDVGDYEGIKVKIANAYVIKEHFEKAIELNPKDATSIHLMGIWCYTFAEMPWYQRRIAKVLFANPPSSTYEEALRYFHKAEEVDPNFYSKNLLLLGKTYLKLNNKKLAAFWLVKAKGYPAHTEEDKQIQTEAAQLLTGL
UniProt Q9DCX8: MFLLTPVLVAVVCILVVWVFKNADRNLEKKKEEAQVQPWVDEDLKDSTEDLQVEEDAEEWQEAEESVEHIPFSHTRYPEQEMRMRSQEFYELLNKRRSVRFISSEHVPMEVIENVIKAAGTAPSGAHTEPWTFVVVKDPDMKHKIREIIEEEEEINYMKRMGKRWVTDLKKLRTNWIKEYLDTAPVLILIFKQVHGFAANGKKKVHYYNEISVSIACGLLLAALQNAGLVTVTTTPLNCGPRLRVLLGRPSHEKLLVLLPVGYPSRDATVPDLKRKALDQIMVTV
UniProt Q9JIY5: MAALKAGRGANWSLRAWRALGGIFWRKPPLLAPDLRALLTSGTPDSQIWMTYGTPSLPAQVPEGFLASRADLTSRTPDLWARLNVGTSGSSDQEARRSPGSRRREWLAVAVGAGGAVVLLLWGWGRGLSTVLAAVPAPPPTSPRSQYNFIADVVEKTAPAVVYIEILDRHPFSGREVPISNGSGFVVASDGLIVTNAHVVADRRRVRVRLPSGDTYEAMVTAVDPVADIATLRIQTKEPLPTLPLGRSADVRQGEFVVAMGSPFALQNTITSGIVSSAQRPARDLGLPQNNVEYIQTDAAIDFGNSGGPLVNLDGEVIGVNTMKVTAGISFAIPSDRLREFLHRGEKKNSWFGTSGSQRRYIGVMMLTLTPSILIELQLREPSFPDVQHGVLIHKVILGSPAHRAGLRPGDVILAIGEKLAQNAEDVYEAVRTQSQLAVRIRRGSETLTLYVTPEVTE
UniProt Q9JKX3: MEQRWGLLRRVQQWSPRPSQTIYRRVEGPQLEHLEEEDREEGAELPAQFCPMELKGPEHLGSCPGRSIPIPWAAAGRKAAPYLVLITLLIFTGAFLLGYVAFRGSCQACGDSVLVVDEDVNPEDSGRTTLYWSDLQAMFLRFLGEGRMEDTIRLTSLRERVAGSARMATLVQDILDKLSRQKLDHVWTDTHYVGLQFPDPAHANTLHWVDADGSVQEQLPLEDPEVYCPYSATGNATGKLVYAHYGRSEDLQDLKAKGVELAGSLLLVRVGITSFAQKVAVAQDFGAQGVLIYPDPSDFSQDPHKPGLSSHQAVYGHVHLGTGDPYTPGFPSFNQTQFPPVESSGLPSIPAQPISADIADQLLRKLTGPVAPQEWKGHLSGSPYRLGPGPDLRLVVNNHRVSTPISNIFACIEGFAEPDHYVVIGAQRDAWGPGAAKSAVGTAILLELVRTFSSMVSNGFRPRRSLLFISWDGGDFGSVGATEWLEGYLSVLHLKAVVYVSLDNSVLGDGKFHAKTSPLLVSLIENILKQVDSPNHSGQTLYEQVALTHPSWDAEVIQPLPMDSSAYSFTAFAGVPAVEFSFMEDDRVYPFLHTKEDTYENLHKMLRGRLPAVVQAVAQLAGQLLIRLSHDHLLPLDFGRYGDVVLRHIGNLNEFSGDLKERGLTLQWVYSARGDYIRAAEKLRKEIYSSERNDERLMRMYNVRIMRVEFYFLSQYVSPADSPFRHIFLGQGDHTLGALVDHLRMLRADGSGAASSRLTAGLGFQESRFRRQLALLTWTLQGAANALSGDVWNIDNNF
UniProt Q9JHX2: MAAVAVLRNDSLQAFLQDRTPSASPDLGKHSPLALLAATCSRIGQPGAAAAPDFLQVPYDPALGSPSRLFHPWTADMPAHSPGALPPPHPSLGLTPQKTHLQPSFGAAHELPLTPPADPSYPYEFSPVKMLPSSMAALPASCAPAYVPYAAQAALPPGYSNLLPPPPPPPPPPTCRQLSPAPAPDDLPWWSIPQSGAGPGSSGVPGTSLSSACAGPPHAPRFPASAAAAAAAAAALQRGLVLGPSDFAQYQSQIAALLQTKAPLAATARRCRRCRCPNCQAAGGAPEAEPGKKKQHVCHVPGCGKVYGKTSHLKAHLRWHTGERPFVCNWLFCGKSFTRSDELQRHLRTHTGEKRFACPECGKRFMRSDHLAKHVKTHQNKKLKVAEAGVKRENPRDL
UniProt Q9ESX5: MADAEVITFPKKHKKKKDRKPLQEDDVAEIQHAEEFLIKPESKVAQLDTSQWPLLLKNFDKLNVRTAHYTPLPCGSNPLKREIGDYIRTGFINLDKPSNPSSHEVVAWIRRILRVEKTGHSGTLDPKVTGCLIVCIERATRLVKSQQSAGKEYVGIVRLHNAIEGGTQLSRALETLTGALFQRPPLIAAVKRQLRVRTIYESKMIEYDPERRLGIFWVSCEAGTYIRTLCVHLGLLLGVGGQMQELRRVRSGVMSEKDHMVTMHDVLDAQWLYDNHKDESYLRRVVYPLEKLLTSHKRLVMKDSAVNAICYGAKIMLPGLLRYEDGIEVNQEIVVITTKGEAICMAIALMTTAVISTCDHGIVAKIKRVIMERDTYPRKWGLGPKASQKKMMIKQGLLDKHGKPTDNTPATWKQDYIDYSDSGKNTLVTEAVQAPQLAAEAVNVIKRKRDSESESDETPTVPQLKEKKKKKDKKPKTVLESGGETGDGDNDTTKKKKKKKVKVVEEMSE
UniProt Q9DCW4: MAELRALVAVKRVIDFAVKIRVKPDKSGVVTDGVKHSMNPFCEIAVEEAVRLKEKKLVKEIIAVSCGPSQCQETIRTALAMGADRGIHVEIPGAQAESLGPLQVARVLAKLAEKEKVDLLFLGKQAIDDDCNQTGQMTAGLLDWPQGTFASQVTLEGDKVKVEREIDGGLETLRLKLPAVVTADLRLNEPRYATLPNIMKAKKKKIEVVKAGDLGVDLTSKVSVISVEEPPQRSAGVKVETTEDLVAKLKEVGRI
UniProt Q9JM14: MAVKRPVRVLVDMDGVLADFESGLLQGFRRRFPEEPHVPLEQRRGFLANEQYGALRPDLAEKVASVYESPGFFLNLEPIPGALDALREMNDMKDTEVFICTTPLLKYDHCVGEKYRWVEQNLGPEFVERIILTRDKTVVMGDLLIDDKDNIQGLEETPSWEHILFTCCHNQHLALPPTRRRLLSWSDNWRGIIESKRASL
UniProt Q9EP71: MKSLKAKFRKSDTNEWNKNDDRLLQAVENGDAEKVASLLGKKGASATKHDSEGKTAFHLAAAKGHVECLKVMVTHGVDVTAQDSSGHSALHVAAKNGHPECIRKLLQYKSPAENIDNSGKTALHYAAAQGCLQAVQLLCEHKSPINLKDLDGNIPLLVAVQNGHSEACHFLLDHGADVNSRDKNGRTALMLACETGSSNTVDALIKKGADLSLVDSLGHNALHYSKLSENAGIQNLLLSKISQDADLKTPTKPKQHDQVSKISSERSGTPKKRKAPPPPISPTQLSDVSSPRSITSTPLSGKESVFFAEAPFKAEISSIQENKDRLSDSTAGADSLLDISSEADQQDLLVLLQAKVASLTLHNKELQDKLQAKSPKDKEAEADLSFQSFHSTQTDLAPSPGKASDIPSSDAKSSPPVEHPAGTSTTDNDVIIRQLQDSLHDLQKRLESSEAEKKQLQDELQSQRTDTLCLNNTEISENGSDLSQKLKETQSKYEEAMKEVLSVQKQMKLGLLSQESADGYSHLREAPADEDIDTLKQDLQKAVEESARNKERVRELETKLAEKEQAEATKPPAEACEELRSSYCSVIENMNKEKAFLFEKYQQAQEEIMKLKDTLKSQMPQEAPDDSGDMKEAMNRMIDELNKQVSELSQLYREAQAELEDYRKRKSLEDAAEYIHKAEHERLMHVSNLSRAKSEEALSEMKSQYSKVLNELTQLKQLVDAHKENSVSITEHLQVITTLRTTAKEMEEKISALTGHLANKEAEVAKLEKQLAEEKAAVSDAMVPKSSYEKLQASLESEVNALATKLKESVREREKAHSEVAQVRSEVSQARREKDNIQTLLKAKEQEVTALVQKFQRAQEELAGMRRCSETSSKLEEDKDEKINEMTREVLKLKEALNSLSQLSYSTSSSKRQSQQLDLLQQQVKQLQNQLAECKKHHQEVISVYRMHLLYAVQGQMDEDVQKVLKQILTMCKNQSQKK
UniProt Q9JKW0, whole entry: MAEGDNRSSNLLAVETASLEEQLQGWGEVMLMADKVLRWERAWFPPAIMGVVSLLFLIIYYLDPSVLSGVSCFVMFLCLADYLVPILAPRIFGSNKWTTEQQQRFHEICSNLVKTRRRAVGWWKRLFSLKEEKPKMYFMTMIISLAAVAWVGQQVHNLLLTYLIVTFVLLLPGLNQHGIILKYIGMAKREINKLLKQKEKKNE
UniProt Q9EPL9: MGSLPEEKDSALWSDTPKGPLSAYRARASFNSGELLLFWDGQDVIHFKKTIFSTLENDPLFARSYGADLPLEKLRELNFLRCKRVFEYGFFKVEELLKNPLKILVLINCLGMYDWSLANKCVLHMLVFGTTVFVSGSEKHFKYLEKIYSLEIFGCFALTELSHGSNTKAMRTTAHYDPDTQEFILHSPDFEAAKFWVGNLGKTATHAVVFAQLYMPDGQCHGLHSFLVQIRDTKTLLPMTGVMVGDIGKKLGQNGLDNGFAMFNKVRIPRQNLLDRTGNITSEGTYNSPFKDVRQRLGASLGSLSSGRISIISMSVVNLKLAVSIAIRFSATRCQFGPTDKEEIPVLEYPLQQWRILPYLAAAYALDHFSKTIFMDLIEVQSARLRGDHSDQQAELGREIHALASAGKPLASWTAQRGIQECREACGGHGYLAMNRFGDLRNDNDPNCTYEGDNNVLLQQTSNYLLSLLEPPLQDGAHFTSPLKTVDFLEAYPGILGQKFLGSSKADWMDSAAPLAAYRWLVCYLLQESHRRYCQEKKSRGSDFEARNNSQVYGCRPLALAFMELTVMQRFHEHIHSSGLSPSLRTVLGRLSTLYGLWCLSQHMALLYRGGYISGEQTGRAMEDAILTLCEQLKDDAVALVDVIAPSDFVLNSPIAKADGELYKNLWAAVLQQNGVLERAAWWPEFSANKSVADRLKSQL
UniProt Q9EPQ7, whole entry: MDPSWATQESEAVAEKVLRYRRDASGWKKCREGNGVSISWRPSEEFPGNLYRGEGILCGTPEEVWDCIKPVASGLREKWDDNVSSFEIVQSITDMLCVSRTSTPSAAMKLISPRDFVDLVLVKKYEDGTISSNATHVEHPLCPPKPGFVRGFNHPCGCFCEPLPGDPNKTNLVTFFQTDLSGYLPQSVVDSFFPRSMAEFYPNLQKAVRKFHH
UniProt Q9DC71: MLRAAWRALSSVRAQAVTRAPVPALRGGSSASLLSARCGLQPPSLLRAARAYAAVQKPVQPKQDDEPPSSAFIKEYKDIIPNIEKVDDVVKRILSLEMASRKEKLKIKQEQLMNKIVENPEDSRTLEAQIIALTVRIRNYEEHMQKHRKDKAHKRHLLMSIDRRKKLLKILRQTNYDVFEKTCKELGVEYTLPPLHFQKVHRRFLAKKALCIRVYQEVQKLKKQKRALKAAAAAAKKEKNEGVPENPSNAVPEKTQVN
UniProt Q9DCX2: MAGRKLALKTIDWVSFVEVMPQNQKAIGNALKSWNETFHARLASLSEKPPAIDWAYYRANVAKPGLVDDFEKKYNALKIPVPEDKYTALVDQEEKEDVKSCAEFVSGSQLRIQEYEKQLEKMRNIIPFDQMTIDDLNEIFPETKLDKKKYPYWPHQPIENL

Target | log2 fold change of pooled soluble protein
UniProt Q9QUI0 | -0.0762
UniProt Q9JKD3 | -0.314
UniProt Q9ESE1 | -0.0453
UniProt Q9QXA5 | -0.00344
UniProt Q9JI39 | 0.0292
UniProt Q9ER73 | -0.0667
UniProt Q9JL61 | 0.0558
UniProt Q9JI75 | -0.158
UniProt Q9DCQ2 | -0.12
UniProt Q9EST4 | 0.0379
UniProt Q9DCL8 | 0.234
UniProt Q9JI58 | -0.00694
UniProt Q9JMD3 | 0.207
UniProt Q9DCV4 | -0.00596
UniProt Q9DCX8 | 0.043
UniProt Q9JIY5 | -0.199
UniProt Q9JKX3 | 0.019
UniProt Q9JHX2 | -0.137

Already shown: an excerpt of the list.
Target | log2 fold change of pooled soluble protein
UniProt Q9JL61 | 0.0558
UniProt Q9JI75 | -0.158
UniProt Q9DCQ2 | -0.12
UniProt Q9EST4 | 0.0379
UniProt Q9DCL8 | 0.234
UniProt Q9JI58 | -0.00694
UniProt Q9JMD3 | 0.207

Following part

Target | log2 fold change of pooled soluble protein
UniProt Q9ESX5 | 0.0684
UniProt Q9DCW4 | -0.0956
UniProt Q9JHJ3 | 0.18
UniProt Q9JM14 | 0.362
UniProt Q9EP71 | -0.139
UniProt Q9JKW0 | -0.159
UniProt Q9QXZ6 | 0.0308
UniProt Q9JJN5 | -0.121
UniProt Q9JLJ1 | -0.209
UniProt Q9EPL9 | 0.0316
UniProt Q9ER39 | 0.202
UniProt Q9JLF6 | 0.0343
UniProt Q9EPQ7 | 0.0531
UniProt Q9DC71 | 0.193
UniProt Q9DCX2 | 0.0545
UniProt Q9EPR4 | -0.0526
UniProt Q9JHS9 | 0.0569
UniProt Q9JLB9 | -0.132

Reference: the supplement of paper PMC12819154, “High-throughput peptide-centric local stability assay extends protein–ligand identification to membrane proteins, tissues and bacteria” (Nature Structural & Molecular Biology, 2025)
